Experimental data taken from patent US10519099B2, “Cystobactamides” (priority 2014, dated 2019).
Converted amounts (≈) assume the structure as drawn.

Tested on: Staphylococcus aureus ATCC29213
Assay: MIC microdilution, Staphylococcus aureus ATCC29213
Type: cell-based
Settings: larger panel
Experimental: Indicator strains used in susceptibility assays were either part of our strain collection or purchased from the German Collection of Microorgansims and Cell Cultures (DSMZ) or from the American Type Culture Collection (ATCC). E. coli strain WT and corresponding E. coli mutants were kindly provided by Prof. Dr. P. Heisig, Pharmaceutical Biology and Microbiology, University of Hamburg. E. coli strains JW0401-1 (WT) and Δtsx were obtained from the CGSC collection.
MIC values were determined in standardized microdilution assays. Overnight cultures were diluted in the appropriate growth medium to achieve an inoculum of 10^4-10^6 cfu/mL. Yeasts were grown in Myc medium (1% phytone peptone, 1% glucose, 50 mM HEPES, pH 7.0), S. pneumonia and Enterococcus spp. in tryptic soy broth (TSB: 1.7% peptone casein, 0.3% peptone soymeal, 0.25% glucose, 0.5% NaCl, 0.25% K2HPO4; pH 7.3); M. smegmatis in Middlebrook 7H9 medium supplemented with 10% Middlebrook ADC enrichment and 2 ml/I glycerol). All other listed bacteria were grown in Müller-Hinton broth (0.2% beef infusion solids, 1.75% casein hydrolysate, 0.15% starch, pH 7.4). […] Growth inhibition was assessed by visual inspection and the MIC was defined as the lowest concentration of compound that inhibited visible growth.

SMILES: O=C(O)c1cn(C2CC2)c2cc(N3CCNCC3)c(F)cc2c1=O [CP, Ciprofloxacin, reference compound]
- MIC: 0.05 to 0.1 µg/mL (≈ 0.151 to 0.302 µM)
